Literature values in patent US20210137903A1, “ANTI-ANDROGENS FOR THE TREATMENT OF PROSTRATE CANCER” (priority 2019, published 2021).
For at least one compound, name, drawing or mass did not settle the structure.

Tested on: W741L/W741C AR mutants
Settings: cited from earlier work

In the case of `CC(O)(CS(=O)(=O)c1ccc(F)cc1)C(=O)Nc1ccc(C#N)c(C(F)(F)F)c1` (stereo not shown) [bicalutamide], the AR agonist activity is listed as “act as AR agonists”.
